Test results taken from publication PMC4773855.
These are yes or no findings as the source states them, for the method shown. In cells and extracts the contact can be indirect. Binding calls can cover weak binding; strength is not graded here. Where a sequence is shown, tags or fusion partners need not be part of it.

Target: endogenous Akt (human (endogenous in HLFs))
Assay: co-IP; HLF lysate (50 mM Tris-HCl pH 7.5, 150 mM NaCl, 0.5% NP-40, 1 mM DTT); immunoprecipitation with anti-Akt antibody or control antibody for 3 h at 4 °C, protein A/G-agarose beads; Western blot with anti-HA antibody

Row | binding | Binder
1 | binds | HA-tagged full-length wild type human LARP6 (La ribonucleoprotein domain family, member 6) (protein, UniProt Q9BRS8 1-491) MAQSGGEARPGPKTAVQIRVAIQEAEDVDELEDEEEGAETRGAGDPARYLSPGWGSASEEEPSRGHSGTTASGGENEREDLEQEWKPPDEELIKKLVDQIEFYFSDENLEKDAFLLKHVRRNKLGYVSVKLLTSFKKVKHLTRDWRTTAHALKYSVVLELNEDHRKVRRTTPVPLFPNENLPSKMLLVYDLYLSPKLWALATPQKNGRVQEKVMEHLLKLFGTFGVISSVRILKPGRELPPDIRRISSRYSQVGTQECAIVEFEEVEAAIKAHEFMITESQGKENMKAVLIGMKPPKKKPAKDKNHDEEPTASIHLNKSLNKRVEELQYMGDESSANSSSDPESNPTSPMAGRRHAATNKLSPSGHQNLFLSPNASPCTSPWSSPLAQRKGVSRKSPLAEEGRLNCSTSPEIFRKCMDYSSDSSVTPSGSPWVRRRRQAEMGTQEKSPGTSPLLSRKMQTADGLPVGVLRLPRGPDNTRGFHGHERSRACV
2 | binds | HA-tagged LARP6 S451A mutant (protein, UniProt Q9BRS8 1-491) MAQSGGEARPGPKTAVQIRVAIQEAEDVDELEDEEEGAETRGAGDPARYLSPGWGSASEEEPSRGHSGTTASGGENEREDLEQEWKPPDEELIKKLVDQIEFYFSDENLEKDAFLLKHVRRNKLGYVSVKLLTSFKKVKHLTRDWRTTAHALKYSVVLELNEDHRKVRRTTPVPLFPNENLPSKMLLVYDLYLSPKLWALATPQKNGRVQEKVMEHLLKLFGTFGVISSVRILKPGRELPPDIRRISSRYSQVGTQECAIVEFEEVEAAIKAHEFMITESQGKENMKAVLIGMKPPKKKPAKDKNHDEEPTASIHLNKSLNKRVEELQYMGDESSANSSSDPESNPTSPMAGRRHAATNKLSPSGHQNLFLSPNASPCTSPWSSPLAQRKGVSRKSPLAEEGRLNCSTSPEIFRKCMDYSSDSSVTPSGSPWVRRRRQAEMGTQEKSPGTAPLLSRKMQTADGLPVGVLRLPRGPDNTRGFHGHERSRACV
